Some of the results follow.
What was measured:
Assay in all cases: log2 fold change, soluble protein after heating vs DMSO (PISA); higher = thermal stabilisation; K562 cells, 10 uM, 30 min; active = over 0.2 and 3.5 SD of the protein, either way, in both replicates (recomputed)
[1] = compound: CS(=O)(=O)c1ccc(-c2cnc(N)c(C(=O)Nc3ccccc3)n2)cc1
Method in brief: (§1)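 K562 cells at 2×10^6 cells/mL were treated for 30 min with 10 μM compound, and aliquots were heated for 3 min over 48°C-58°C before pooling. Extraction used PBS with 0.5% NP-40 at 4°C, and soluble protein was the supernatant after 21,000xg for 90 min, measured by TMTpro 16plex LC-MS/MS with channel sums equalised. Thermal stability values, relative to control samples and from duplicates, are log2 fold changes.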

Chains of the proteins cited; added tags and fusions are not shown. Lines headed by an entry give the natural chain unless they say otherwise; changes in a name come on top.
UniProt O00442: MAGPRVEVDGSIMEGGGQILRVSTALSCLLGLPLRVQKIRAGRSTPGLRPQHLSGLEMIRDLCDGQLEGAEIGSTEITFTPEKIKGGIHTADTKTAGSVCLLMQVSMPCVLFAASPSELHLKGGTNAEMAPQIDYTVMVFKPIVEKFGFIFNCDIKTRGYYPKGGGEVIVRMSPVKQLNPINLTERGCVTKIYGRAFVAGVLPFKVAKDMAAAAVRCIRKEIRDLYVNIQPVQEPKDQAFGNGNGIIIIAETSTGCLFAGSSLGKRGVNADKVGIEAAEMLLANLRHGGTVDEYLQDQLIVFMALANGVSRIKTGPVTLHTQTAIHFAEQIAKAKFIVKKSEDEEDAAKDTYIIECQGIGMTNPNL
UniProt Q15404: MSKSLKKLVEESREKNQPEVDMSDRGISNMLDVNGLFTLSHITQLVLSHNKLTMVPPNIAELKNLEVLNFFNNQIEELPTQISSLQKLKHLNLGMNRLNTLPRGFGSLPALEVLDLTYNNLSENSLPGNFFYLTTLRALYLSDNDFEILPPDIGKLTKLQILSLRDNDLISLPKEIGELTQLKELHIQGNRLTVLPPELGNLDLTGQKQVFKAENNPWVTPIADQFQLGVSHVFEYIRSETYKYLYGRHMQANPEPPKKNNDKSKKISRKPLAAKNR
UniProt Q9Y3Z3: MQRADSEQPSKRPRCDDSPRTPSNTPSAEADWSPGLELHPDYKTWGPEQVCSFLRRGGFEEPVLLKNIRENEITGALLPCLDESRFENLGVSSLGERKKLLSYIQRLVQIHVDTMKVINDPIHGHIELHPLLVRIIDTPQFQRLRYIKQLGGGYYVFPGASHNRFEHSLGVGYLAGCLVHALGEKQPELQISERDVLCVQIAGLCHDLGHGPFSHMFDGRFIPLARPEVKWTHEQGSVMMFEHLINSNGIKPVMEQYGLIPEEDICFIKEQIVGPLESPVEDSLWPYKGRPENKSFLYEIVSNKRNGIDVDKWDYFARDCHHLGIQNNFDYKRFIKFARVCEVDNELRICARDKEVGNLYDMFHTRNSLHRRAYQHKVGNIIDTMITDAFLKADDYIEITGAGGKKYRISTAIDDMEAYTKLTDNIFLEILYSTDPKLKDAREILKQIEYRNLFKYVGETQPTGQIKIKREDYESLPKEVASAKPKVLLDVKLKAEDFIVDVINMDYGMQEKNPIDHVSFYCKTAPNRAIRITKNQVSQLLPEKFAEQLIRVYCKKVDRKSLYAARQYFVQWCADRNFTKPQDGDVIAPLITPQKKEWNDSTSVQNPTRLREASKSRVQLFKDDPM
UniProt Q9UBE0: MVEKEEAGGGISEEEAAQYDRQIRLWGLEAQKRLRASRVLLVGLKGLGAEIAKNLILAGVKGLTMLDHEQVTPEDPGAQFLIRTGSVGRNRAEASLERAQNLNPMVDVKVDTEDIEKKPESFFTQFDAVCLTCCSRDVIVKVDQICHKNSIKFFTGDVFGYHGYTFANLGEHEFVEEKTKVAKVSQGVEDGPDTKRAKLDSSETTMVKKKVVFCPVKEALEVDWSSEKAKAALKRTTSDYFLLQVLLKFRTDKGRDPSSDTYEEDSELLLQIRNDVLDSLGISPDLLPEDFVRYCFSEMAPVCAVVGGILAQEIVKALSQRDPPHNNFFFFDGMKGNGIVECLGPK
UniProt Q9BRK5: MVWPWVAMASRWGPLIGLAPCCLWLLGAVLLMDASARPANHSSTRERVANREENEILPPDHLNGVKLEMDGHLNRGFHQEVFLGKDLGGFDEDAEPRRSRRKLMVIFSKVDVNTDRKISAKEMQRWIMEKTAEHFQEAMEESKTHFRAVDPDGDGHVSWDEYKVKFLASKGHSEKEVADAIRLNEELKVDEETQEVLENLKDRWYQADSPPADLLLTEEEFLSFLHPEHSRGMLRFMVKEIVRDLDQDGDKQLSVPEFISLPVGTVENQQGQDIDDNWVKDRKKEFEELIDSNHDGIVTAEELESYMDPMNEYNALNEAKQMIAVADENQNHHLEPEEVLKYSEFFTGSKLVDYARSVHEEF
UniProt P31040: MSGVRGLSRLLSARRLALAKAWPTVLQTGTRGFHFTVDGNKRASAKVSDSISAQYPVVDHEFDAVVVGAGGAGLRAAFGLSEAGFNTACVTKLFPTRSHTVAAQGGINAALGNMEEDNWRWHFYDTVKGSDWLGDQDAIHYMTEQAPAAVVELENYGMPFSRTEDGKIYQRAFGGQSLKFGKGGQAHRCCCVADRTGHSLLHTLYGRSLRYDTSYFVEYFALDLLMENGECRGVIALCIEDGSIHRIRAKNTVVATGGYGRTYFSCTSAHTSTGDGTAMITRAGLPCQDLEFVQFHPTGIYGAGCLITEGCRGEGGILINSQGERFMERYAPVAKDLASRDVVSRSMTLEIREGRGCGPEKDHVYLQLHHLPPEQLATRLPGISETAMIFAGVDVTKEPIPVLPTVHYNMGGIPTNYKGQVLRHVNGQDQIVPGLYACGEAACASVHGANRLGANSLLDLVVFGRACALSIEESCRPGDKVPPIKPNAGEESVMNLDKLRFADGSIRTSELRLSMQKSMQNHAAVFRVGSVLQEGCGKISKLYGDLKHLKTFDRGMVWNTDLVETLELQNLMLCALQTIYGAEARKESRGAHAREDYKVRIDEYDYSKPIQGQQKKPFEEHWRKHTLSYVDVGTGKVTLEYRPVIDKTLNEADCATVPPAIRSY
UniProt Q8N488: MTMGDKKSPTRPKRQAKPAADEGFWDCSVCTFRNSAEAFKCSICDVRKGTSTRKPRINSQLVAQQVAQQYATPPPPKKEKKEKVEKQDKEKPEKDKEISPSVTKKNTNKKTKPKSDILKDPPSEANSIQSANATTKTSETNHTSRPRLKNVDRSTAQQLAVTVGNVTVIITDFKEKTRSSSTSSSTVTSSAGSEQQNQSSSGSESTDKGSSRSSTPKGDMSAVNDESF
UniProt Q9Y6B6: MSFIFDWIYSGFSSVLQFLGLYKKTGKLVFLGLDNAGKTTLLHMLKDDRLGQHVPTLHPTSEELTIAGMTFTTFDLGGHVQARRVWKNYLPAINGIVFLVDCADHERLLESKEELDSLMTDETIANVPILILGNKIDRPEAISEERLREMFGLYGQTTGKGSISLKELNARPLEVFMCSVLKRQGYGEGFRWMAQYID
UniProt Q6IQ49: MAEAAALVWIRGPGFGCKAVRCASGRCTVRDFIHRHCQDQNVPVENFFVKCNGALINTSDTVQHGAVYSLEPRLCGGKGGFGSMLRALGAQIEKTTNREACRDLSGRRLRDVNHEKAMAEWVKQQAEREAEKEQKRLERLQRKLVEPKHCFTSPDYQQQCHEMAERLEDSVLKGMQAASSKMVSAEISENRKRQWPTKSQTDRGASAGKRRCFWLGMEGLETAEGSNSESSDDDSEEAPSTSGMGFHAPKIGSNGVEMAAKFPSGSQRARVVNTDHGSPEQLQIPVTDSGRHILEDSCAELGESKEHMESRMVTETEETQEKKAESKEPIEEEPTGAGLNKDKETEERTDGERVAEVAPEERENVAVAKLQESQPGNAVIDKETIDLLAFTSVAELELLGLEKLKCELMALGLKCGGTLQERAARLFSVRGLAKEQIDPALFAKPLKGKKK
UniProt Q9Y3I0: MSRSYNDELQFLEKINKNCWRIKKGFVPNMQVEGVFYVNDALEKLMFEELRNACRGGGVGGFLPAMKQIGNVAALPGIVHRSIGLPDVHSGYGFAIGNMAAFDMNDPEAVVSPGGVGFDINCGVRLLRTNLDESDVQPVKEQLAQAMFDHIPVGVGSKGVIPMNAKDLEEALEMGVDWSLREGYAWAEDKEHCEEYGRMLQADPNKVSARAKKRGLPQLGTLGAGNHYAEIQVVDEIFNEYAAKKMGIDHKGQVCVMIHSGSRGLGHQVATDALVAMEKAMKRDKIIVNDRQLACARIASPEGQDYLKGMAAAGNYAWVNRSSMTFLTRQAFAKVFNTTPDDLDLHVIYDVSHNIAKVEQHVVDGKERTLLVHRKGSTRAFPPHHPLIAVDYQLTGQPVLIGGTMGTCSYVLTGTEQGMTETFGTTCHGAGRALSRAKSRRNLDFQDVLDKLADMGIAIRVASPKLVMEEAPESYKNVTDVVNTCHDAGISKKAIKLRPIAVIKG
UniProt O95487: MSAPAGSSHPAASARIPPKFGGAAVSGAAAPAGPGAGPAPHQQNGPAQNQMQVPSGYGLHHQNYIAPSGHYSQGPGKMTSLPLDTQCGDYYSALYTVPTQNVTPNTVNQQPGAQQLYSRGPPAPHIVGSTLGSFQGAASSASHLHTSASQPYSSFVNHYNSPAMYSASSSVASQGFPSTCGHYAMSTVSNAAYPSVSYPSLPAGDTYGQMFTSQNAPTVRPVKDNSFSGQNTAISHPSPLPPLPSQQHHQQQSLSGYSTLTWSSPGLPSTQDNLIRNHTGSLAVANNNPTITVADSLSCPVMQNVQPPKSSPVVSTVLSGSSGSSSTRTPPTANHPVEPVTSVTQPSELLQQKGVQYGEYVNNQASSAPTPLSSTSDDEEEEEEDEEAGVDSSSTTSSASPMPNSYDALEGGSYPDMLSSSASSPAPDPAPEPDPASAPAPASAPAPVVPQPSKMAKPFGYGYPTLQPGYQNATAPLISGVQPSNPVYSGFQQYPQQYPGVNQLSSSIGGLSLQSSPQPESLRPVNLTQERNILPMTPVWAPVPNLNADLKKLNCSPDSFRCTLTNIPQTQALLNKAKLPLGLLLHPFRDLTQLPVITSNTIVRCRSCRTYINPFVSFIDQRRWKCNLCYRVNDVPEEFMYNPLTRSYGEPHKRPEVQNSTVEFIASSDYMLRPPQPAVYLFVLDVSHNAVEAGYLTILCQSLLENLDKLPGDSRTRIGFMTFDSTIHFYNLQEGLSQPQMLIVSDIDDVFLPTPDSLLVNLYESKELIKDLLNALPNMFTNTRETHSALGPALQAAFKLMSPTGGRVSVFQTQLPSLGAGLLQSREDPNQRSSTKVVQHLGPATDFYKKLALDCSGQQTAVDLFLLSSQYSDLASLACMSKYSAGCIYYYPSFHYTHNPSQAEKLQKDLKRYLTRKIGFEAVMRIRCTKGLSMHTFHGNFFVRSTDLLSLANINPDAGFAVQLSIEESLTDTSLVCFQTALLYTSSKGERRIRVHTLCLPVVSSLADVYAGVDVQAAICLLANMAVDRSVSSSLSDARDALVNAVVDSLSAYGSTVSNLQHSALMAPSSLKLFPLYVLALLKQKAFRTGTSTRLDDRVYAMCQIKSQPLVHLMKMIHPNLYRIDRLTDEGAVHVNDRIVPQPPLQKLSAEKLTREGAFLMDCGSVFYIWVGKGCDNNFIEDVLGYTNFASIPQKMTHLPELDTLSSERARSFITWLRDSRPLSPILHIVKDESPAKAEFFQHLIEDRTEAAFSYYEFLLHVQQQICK
UniProt Q6NW29: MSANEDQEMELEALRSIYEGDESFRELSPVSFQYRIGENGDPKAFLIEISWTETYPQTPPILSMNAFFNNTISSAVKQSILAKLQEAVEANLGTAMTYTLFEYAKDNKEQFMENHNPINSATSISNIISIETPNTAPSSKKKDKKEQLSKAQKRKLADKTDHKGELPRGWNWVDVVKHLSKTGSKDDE
UniProt Q96FV2: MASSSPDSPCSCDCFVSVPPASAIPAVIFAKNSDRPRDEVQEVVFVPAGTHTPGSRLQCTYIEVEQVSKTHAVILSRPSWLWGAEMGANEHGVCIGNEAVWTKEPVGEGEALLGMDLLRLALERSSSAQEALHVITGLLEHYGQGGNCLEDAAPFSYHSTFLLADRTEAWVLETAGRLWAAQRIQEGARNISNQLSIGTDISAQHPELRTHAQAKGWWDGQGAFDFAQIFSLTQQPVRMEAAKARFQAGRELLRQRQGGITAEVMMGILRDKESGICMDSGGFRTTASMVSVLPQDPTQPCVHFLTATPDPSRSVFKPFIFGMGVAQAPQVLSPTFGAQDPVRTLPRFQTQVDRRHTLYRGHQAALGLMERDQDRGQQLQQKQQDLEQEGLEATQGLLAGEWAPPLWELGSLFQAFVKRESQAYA
UniProt Q9NR31: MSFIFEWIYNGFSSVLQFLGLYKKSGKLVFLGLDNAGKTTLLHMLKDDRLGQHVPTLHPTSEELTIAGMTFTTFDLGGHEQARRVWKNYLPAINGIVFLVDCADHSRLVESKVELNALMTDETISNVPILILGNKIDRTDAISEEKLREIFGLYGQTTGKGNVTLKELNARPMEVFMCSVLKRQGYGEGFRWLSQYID
UniProt Q14108: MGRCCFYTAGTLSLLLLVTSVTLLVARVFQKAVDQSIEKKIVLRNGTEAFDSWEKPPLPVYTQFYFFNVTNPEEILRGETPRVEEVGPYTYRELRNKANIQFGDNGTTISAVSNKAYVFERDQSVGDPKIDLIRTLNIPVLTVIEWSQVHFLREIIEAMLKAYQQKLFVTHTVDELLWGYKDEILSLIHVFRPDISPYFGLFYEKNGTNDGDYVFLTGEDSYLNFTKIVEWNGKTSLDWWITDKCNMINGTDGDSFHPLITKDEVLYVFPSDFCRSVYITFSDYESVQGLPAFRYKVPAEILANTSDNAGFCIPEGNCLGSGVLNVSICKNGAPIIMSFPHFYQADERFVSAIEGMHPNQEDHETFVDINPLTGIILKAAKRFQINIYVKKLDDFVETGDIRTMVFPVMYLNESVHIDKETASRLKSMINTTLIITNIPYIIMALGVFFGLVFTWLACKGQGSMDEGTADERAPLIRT

[2] = compound: C[C@@H](Oc1cc(-c2cnn(C3CCNCC3)c2)cnc1N)c1c(Cl)ccc(F)c1Cl [crizotinib]
Method in brief: as §1

[3] = compound: C[C@@H]1COCCN1C2=NC(=NC(=C2)C3(CC3)S(=O)(=O)C)C4=C5C=CNC5=CC=C4
Method in brief: as §1

[4] = compound: C[C@H](C1=CC=C(C=C1)C(=O)NC2=C3C=CNC3=NC=C2)N
Method in brief: as §1

[5] = compound: C[C@H](Nc1ncnc2nc[nH]c12)c1cc2cccc(Cl)c2c(=O)n1-c1ccccc1 [duvelisib]
Method in brief: as §1

[6] = compound: Cc1cc(Nc2cc(CN3CCOCC3)c3nc(C)c(Cc4ccc(Cl)cc4F)n3n2)n[nH]1 [gandotinib]
Method in brief: as §1

[7] = compound: Cc1cc(Nc2cc(N3CCN(C)CC3)nc(Sc3ccc(NC(=O)C4CC4)cc3)n2)n[nH]1 [tozasertib]
Method in brief: as §1

[8] = compound: Cc1cc(SCc2sc(-c3ccc(C(F)(F)F)cc3)nc2C)ccc1OCC(=O)O
Method in brief: as §1

[9] = compound: Cc1ccc(-n2nc(C(C)(C)C)cc2NC(=O)Nc2ccc(OCCN3CCOCC3)c3ccccc23)cc1 [doramapimod]
Method in brief: as §1

[10] = compound: Cc1ccc(C(=O)N(CCCN)[C@@H](c2nc3cc(Cl)ccc3c(=O)n2Cc2ccccc2)C(C)C)cc1 [ispinesib]
Method in brief: as §1

Measured: log2 fold change

RTCA (UniProt O00442)
inactive: [1] 0.012 | [2] -0.013 | [3] 0.041 | [4] -0.001 | [5] -0.013 | [6] -0.085 | [7] -0.044 | [8] 0.062 | [9] 0.014 | [10] -0.028

RSU1 (UniProt Q15404)
inactive: [1] 0.026 | [2] 0.044 | [3] 0.026 | [4] -0.028 | [5] 0.053 | [6] 0 | [7] -0.02 | [8] -0.012 | [9] -0.014 | [10] -0.017

SDSL (UniProt Q96GA7)
inactive: [1] -0.025 | [2] 0.004 | [3] 0.012 | [4] -0.058 | [5] 0.043 | [6] 0.076 | [7] -0.019 | [8] 0.035 | [9] 0.004 | [10] 0.006

SCIN (UniProt Q9Y6U3)
inactive: [1] 0.133 | [2] -0.066 | [3] -0.003 | [4] 0.025 | [5] -0.015 | [6] 0.005 | [7] 0.123 | [8] 0.139 | [9] 0.002 | [10] -0.168

RTF1 (UniProt Q92541)
inactive: [1] 0.026 | [2] 0.026 | [3] 0.091 | [4] -0.067 | [5] 0.064 | [6] -0.102 | [7] -0.015 | [8] 0.036 | [9] -0.034 | [10] 0.019

RWDD1 (UniProt Q9H446)
inactive: [1] 0.05 | [2] 0.084 | [3] 0.03 | [4] -0.072 | [5] 0.041 | [6] -0.047 | [7] 0.036 | [8] -0.047 | [9] -0.005 | [10] 0.068

SAMHD1 (UniProt Q9Y3Z3)
inactive: [1] 0 | [2] 0.002 | [3] 0.022 | [4] -0.026 | [5] 0.036 | [6] -0.104 | [7] -0.035 | [8] -0.025 | [9] 0.009 | [10] -0.02

RTN3 (UniProt O95197)
inactive: [1] 0.055 | [2] 0.029 | [3] 0.022 | [4] -0.034 | [5] 0.111 | [6] -0.025 | [7] -0.02 | [8] 0.039 | [9] -0.008 | [10] 0.02

SDHAF3 (UniProt Q9NRP4)
inactive: [1] -0.03 | [2] -0.052 | [3] 0.031 | [4] -0.085 | [5] 0.183 | [6] -0.082 | [7] -0.035 | [8] -0.011 | [9] -0.019 | [10] -0.171

SAE1 (UniProt Q9UBE0)
inactive: [1] 0.05 | [2] 0.093 | [3] 0.032 | [4] -0.059 | [5] 0 | [6] -0.043 | [7] 0.073 | [8] 0.034 | [9] -0.054 | [10] 0.097

SDF4 (UniProt Q9BRK5)
inactive: [1] -0.001 | [2] 0.126 | [3] 0.108 | [4] -0.031 | [5] 0.017 | [6] 0.042 | [7] 0.004 | [8] -0.012 | [9] 0.006 | [10] 0.077

SDHA (UniProt P31040)
inactive: [1] -0.017 | [2] 0.021 | [3] -0.003 | [4] -0.077 | [5] 0 | [6] 0.019 | [7] -0.008 | [8] -0.013 | [9] -0.065 | [10] 0.004

SARNP (UniProt P82979)
inactive: [1] -0.011 | [2] 0.066 | [3] -0.079 | [4] 0.047 | [5] 0.006 | [6] 0.047 | [7] -0.037 | [8] -0.111 | [9] -0.068 | [10] -0.053

RYBP (UniProt Q8N488)
inactive: [1] 0.002 | [2] 0.077 | [3] -0.026 | [4] -0.019 | [5] -0.036 | [6] 0.123 | [7] -0.007 | [8] -0.13 | [9] -0.076 | [10] 0.049

SAR1B (UniProt Q9Y6B6)
inactive: [1] 0.078 | [2] 0.053 | [3] 0.166 | [4] -0.028 | [5] 0.033 | [6] -0.09 | [7] 0.017 | [8] 0.027 | [9] -0.028 | [10] 0.099

RRP15 (UniProt Q9Y3B9)
inactive: [1] -0.094 | [2] 0.085 | [3] -0.001 | [4] -0.057 | [5] -0.077 | [6] 0.117 | [7] 0.026 | [8] -0.039 | [9] 0.013 | [10] 0.071

RUVBL2 (UniProt Q9Y230)
inactive: [1] 0.054 | [2] 0.119 | [3] -0.014 | [4] -0.019 | [5] 0.002 | [6] -0.03 | [7] 0.034 | [8] -0.042 | [9] 0.007 | [10] 0.138

SDE2 (UniProt Q6IQ49)
inactive: [1] 0.011 | [2] 0.049 | [3] -0.01 | [4] 0.145 | [5] 0.077 | [6] -0.022 | [7] 0.056 | [8] -0.061 | [9] -0.014 | [10] 0.018

RTCB (UniProt Q9Y3I0)
inactive: [1] -0.007 | [2] -0.018 | [3] -0.065 | [4] 0.025 | [5] -0.027 | [6] 0.012 | [7] 0.011 | [8] -0.008 | [9] 0.04 | [10] 0.001

SEC24B isoform 3 (UniProt O95487)
inactive: [1] 0.003 | [2] -0.046 | [3] -0.135 | [4] 0.073 | [5] -0.048 | [6] -0.009 | [7] 0.076 | [8] 0.075 | [9] 0.088 | [10] -0.011

RTRAF (UniProt Q9Y224)
inactive: [1] -0.026 | [2] 0.04 | [3] -0.115 | [4] 0.179 | [5] -0.103 | [6] 0.013 | [7] 0.043 | [8] -0.007 | [9] 0.106 | [10] -0.126

RWDD4 (UniProt Q6NW29)
inactive: [1] 0.053 | [2] 0.011 | [3] 0.015 | [4] 0.015 | [5] 0.062 | [6] -0.039 | [7] 0.05 | [8] 0.016 | [9] 0.016 | [10] -0.143

SCAMP4 (UniProt Q969E2)
inactive: [1] 0.03 | [2] 0.046 | [3] 0.102 | [4] -0.03 | [5] 0.055 | [6] 0.134 | [7] -0.006 | [8] -0.041 | [9] -0.035 | [10] -0.018

SCRN2 (UniProt Q96FV2)
inactive: [1] 0.197 | [2] 0.08 | [3] 0.076 | [4] 0.093 | [5] 0.109 | [6] -0.077 | [7] 0.043 | [8] 0.048 | [9] -0.093 | [10] -0.051

S100A6 (UniProt P06703)
inactive: [1] -0.078 | [2] 0.156 | [3] 0.132 | [4] -0.016 | [5] 0.134 | [6] 0.039 | [7] 0.025 | [8] 0.019 | [9] 0.152 | [10] 0.06

SCP2 (UniProt P22307)
inactive: [1] 0.033 | [2] 0.046 | [3] 0.047 | [4] -0.028 | [5] 0.045 | [6] -0.012 | [7] -0.01 | [8] -0.01 | [9] 0.04 | [10] -0.03

SAR1A (UniProt Q9NR31)
inactive: [1] 0.061 | [2] 0.012 | [3] -0.023 | [4] -0.004 | [5] 0.023 | [6] -0.024 | [7] -0.024 | [8] -0.022 | [9] -0.12 | [10] 0.236

SEC13 isoform 3 (UniProt P55735)
inactive: [1] 0.022 | [2] -0.014 | [3] -0.021 | [4] -0.045 | [5] -0.02 | [6] -0.054 | [7] 0.02 | [8] 0.007 | [9] -0.068 | [10] 0.045

SEC24D isoform 2 (UniProt O94855)
inactive: [1] -0.012 | [2] 0.001 | [3] 0.06 | [4] -0.009 | [5] 0.007 | [6] -0.073 | [7] -0.014 | [8] 0.054 | [9] -0.042 | [10] 0.077

Quoted from the results shown (two entries):
S100A6 (UniProt P06703)
inactive: [1] -0.078 | [2] 0.156 | [3] 0.132 | [4] -0.016 | [5] 0.134 | [6] 0.039 | [7] 0.025 | [8] 0.019 | [9] 0.152 | [10] 0.06

SCP2 (UniProt P22307)
inactive: [1] 0.033 | [2] 0.046 | [3] 0.047 | [4] -0.028 | [5] 0.045 | [6] -0.012 | [7] -0.01 | [8] -0.01 | [9] 0.04 | [10] -0.03

Remaining list, next part

SCARB2 (UniProt Q14108)
inactive: [1] 0.032 | [2] -0.078 | [3] -0.035 | [4] -0.091 | [5] 0.066 | [6] 0.027 | [7] -0.003 | [8] -0.093 | [9] 0.004 | [10] -0.004

From the supplement of paper PMC10849652
